Assay results from the supplement of paper PMC10849652.
The list shows a part of the results.

Protein sequences, listed by entry. Tags and fused reporters are not part of them. Lines headed by an entry give the natural chain unless they say otherwise; changes in a name come on top.
UniProt Q6P4A7: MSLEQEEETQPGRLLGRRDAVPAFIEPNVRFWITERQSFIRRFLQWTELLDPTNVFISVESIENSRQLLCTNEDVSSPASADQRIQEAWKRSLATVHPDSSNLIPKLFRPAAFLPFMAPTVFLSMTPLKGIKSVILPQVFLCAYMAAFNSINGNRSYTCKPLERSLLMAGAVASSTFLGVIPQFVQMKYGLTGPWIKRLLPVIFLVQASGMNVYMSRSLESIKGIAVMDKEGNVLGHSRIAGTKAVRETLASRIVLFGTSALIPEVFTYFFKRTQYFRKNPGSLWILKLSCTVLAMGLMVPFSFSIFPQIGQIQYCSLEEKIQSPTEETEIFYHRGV
UniProt Q8NEM2: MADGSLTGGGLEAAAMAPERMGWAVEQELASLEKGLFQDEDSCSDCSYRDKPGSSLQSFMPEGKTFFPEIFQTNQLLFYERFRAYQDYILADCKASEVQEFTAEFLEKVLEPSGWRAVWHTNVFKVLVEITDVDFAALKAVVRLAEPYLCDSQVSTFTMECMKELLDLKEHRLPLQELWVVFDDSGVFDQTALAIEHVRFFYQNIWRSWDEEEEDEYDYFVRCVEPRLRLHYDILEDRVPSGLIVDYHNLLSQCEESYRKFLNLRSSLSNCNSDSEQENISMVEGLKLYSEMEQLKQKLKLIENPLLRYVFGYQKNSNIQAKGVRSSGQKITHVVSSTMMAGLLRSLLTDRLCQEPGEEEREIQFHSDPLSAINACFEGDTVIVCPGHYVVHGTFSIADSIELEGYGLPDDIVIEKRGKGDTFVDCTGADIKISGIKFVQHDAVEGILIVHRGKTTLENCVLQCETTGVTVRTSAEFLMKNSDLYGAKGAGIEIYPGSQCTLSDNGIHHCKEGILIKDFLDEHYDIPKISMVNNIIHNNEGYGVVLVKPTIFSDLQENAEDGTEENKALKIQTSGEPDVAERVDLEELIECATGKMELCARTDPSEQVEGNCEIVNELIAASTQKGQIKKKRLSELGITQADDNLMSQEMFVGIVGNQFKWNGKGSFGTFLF
UniProt P84101: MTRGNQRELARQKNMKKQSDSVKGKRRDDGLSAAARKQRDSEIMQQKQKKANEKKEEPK
UniProt O60613, whole entry, looked up: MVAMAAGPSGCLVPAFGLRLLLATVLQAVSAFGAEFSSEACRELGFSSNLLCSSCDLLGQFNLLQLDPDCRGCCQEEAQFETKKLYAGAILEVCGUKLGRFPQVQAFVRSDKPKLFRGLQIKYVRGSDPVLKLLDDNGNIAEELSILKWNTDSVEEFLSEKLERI
UniProt Q8IZQ5, whole entry, looked up: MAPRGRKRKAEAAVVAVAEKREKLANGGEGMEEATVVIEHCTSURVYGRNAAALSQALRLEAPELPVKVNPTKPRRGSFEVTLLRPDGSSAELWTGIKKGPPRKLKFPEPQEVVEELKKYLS
UniProt O95470: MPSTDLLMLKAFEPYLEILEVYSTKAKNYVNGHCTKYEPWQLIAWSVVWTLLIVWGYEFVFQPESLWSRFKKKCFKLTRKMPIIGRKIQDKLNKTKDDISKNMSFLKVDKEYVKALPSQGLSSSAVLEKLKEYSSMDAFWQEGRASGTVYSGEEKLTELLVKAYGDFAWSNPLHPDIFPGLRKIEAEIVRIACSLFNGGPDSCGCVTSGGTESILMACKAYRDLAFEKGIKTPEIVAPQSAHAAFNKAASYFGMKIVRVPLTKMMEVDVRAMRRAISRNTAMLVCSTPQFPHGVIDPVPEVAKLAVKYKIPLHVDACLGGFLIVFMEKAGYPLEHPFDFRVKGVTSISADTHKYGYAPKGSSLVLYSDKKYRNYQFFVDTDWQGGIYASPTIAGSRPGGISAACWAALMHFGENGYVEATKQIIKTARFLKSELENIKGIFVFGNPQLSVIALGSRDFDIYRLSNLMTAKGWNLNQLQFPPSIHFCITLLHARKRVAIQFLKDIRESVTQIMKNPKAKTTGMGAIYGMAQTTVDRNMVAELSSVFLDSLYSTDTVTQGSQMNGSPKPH
UniProt Q13796: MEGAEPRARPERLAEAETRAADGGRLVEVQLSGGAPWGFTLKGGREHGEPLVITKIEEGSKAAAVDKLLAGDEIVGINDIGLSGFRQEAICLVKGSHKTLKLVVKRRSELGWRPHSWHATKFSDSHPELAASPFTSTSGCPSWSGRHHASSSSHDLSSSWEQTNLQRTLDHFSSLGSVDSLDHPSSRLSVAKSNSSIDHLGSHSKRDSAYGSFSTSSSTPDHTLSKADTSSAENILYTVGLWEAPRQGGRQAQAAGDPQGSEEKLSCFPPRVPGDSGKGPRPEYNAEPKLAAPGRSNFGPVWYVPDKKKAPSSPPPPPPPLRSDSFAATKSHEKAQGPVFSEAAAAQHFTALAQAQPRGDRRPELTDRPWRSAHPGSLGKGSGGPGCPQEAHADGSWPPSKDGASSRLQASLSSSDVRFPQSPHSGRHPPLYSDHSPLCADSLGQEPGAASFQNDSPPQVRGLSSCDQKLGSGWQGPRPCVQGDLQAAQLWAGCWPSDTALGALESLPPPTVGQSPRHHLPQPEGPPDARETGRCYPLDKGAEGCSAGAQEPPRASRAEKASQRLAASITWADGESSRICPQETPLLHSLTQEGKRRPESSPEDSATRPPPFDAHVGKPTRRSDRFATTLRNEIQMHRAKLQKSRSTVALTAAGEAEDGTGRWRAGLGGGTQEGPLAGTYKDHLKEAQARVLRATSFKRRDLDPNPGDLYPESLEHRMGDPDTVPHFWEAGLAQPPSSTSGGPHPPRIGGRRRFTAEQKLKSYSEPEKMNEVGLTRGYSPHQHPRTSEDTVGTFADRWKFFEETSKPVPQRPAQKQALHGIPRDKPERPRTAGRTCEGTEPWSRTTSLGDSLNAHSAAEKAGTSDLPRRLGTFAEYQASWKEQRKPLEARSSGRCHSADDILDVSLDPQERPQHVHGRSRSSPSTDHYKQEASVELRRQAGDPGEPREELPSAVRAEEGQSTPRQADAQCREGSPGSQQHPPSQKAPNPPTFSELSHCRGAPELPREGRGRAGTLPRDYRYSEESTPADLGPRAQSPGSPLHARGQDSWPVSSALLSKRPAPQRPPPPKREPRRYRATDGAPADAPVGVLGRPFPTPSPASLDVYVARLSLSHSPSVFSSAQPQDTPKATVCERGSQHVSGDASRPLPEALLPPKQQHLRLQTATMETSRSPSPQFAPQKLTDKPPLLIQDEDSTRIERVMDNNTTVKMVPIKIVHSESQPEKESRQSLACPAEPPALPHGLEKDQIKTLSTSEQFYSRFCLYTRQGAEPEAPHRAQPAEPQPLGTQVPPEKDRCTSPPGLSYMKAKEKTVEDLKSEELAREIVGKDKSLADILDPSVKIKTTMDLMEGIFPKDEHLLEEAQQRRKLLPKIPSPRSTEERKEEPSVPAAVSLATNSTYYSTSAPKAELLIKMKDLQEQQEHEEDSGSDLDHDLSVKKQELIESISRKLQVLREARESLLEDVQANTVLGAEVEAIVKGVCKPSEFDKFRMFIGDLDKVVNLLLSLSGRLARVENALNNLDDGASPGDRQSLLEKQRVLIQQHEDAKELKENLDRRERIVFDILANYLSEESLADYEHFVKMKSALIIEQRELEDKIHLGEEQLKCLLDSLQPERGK
UniProt Q9UGK8: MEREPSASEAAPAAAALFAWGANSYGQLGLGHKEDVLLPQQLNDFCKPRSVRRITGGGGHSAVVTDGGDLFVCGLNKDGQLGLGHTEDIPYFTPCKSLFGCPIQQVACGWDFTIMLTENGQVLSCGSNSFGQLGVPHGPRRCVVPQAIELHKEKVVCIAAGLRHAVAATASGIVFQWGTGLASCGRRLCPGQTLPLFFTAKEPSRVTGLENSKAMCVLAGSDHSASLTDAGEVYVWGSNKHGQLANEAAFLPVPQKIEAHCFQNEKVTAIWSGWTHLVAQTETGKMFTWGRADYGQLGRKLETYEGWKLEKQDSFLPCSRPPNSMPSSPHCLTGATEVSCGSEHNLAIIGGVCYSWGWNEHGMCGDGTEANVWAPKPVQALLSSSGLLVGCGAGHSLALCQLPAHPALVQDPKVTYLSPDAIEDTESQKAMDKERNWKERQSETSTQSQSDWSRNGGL
UniProt Q99719: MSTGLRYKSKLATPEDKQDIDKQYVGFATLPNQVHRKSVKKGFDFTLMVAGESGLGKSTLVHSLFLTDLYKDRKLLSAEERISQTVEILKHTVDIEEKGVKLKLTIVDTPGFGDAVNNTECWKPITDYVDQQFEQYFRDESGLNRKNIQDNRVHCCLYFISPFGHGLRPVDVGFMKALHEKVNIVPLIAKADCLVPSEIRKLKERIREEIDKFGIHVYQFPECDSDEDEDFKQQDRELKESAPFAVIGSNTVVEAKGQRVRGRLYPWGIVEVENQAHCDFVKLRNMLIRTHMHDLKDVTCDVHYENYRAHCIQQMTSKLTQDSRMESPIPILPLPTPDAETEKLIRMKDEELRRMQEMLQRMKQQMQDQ
UniProt P29353: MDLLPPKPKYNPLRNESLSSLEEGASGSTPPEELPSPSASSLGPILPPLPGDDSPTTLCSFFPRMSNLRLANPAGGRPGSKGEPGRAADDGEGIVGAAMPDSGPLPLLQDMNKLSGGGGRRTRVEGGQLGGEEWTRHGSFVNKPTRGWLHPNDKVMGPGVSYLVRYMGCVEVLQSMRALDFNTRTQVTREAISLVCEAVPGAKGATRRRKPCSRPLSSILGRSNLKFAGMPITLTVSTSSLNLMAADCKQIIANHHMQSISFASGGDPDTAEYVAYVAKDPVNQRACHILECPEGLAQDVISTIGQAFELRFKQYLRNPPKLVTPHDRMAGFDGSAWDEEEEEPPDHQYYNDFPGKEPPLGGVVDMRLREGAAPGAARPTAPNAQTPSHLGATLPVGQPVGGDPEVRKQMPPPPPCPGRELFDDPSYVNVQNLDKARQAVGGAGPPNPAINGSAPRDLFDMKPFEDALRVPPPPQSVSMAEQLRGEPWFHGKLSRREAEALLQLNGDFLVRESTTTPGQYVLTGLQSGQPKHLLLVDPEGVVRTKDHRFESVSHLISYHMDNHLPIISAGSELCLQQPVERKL
UniProt Q9UGP8: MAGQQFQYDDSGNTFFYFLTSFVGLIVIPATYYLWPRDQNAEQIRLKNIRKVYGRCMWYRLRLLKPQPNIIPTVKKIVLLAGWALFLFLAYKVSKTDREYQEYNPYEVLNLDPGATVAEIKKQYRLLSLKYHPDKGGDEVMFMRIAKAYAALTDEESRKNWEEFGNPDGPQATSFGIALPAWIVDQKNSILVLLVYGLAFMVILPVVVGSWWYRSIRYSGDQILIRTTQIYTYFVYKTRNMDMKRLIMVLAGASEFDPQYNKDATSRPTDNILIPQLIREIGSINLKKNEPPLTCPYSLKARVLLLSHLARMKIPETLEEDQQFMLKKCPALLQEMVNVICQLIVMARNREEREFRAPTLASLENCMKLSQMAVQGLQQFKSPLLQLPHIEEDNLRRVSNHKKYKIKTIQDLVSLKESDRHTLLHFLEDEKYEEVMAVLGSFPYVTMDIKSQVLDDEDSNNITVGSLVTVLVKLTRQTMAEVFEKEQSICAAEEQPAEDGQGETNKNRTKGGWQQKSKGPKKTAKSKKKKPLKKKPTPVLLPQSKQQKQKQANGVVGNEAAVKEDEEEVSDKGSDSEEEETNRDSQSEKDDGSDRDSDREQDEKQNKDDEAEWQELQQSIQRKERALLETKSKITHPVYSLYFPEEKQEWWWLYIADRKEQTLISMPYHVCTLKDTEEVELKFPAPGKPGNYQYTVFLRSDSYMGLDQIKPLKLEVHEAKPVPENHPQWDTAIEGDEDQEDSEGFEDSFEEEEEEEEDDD
UniProt Q96EE3: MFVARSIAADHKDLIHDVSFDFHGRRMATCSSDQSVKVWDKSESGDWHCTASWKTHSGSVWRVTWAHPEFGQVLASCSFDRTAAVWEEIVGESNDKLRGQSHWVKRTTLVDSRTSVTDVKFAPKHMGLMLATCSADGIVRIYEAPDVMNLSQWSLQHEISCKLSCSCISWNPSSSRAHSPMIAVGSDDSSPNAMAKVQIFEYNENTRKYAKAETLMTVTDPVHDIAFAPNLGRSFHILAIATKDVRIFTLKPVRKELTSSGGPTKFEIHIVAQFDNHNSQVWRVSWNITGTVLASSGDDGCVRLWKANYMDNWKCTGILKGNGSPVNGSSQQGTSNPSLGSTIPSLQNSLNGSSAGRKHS
UniProt Q15464: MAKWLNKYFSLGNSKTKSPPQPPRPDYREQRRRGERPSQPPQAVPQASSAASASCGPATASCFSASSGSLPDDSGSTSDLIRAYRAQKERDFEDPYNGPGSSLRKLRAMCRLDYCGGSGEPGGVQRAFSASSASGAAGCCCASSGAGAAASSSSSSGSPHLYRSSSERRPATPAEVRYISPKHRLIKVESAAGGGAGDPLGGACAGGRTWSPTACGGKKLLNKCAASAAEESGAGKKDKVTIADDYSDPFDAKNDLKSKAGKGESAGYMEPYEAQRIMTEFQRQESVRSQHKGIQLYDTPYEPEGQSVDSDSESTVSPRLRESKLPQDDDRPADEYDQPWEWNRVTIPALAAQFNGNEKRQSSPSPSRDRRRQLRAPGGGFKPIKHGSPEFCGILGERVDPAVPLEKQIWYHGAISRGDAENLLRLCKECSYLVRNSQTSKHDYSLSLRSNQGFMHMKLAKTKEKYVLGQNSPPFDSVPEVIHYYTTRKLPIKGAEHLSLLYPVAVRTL

What was measured:
Experiment in all cases: log2 fold change, soluble protein after heating vs DMSO (PISA); higher = thermal stabilisation; K562 cells, 10 uM, 30 min; active = over 0.2 and 3.5 SD of the protein, either way, in both replicates (recomputed)
[1] = compound: C1=CC=C(C=C1)[C@H](COC2=CC3=C(C=C2)NC(=O)N3)NC(=O)C4=CC=CN(C4=O)CC5=CC(=C(C=C5)F)F
Method in brief: (§1)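 K562 cells at 2×10^6 cells/mL were given 10 μM compound for 30 min. Aliquots then went through 3 min of heating across 48°C-58°C, were pooled, and were extracted in PBS with 0.5% NP-40 at 4°C, and the supernatant after 21,000xg for 90 min was quantified by TMTpro 16plex LC-MS/MS with channel sums equalised. Thermal stability relative to control samples, from duplicates, is given as log2 fold change.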

[2] = compound: CC1=C(SC2=C1C(=N[C@H](C3=NN=C(N32)C)CC(=O)N)C4=CC=C(C=C4)Cl)C
Method in brief: as §1

[3] = compound: CC1=C2C(=CC=C1)N=C(N(C2=O)C3=CC=CC=C3C)CN4C=NC5=C(N=CN=C54)N
Method in brief: as §1

[4] = compound: Cc1sc2c(c1C)C(c1ccc(Cl)cc1)=N[C@@H](CC(=O)OC(C)(C)C)c1nnc(C)n1-2
Method in brief: as §1

[5] = compound: c1ccc([C@@H]2C[C@H]2NC2CCNCC2)cc1
Method in brief: as §1

Measured: log2 fold change

SFXN4 (UniProt Q6P4A7)
inactive: [1] 0.012 | [2] -0.011 | [3] 0.104 | [4] -0.015 | [5] 0.055

SHOC2 (UniProt Q9UQ13)
inactive: [1] -0.009 | [2] 0.034 | [3] 0.113 | [4] -0.049 | [5] -0.071

SF1 isoform 5 (UniProt Q15637)
inactive: [1] -0.012 | [2] 0.024 | [3] -0.013 | [4] -0.026 | [5] 0.031

SELENBP1 isoform 4 (UniProt Q13228)
inactive: [1] -0.014 | [2] 0 | [3] -0.014 | [4] -0.005 | [5] 0.031

SH3GLB1 isoform 2 (UniProt Q9Y371)
inactive: [1] -0.061 | [2] 0.015 | [3] 0.034 | [4] 0.123 | [5] -0.019

SIK2 (UniProt Q9H0K1)
inactive: [1] -0.072

SELENOK (UniProt Q9Y6D0)
inactive: [1] -0.061 | [2] -0.061 | [3] 0.092 | [4] -0.005 | [5] -0.118

SIAE (UniProt Q9HAT2)
inactive: [1] -0.035 | [2] -0.011 | [3] 0.21 | [4] 0.073 | [5] 0.035

SHCBP1 (UniProt Q8NEM2)
inactive: [1] 0.018 | [2] -0.176 | [3] 0.138 | [4] -0.089 | [5] -0.056

SIRT1 (UniProt Q96EB6)
inactive: [1] -0.005 | [2] 0.022 | [3] 0.067 | [4] 0.029 | [5] -0.025

SFXN4 isoform 3 (UniProt Q6P4A7)
inactive: [1] 0.053 | [2] 0.316 | [3] 0.302 | [4] -0.198 | [5] 0.033

SERF2 (UniProt P84101)
inactive: [1] 0.016 | [2] 0.128 | [3] -0.029 | [4] 0.039 | [5] 0.014

SIRT6 (UniProt Q8N6T7)
inactive: [1] -0.124 | [2] 0.011 | [3] 0.166 | [4] 0.021 | [5] 0.013

SEC61A2 (UniProt Q9H9S3)
inactive: [1] 0 | [2] 0.047 | [3] -0.055 | [4] -0.048 | [5] 0.03

SERPINF2 (UniProt P08697)
inactive: [1] -0.006 | [2] -0.114 | [3] 0.151 | [4] -0.035 | [5] 0.106

SELENOF (UniProt O60613)
inactive: [1] 0.033 | [2] 0.018 | [3] 0.063 | [4] -0.01 | [5] -0.036

SHMT2 (UniProt P34897)
inactive: [1] 0.012 | [2] 0.003 | [3] 0.025 | [4] -0.006 | [5] 0.009

SELENOH (UniProt Q8IZQ5)
inactive: [1] 0.049 | [2] -0.107 | [3] -0.258 | [4] -0.028 | [5] 0.08

SFPQ (UniProt P23246)
inactive: [1] 0.042 | [2] -0.104 | [3] -0.067 | [4] 0.06 | [5] 0.022

SEPTIN2 isoform 2 (UniProt Q15019)
inactive: [1] 0.005 | [2] 0.015 | [3] 0.037 | [4] -0.004 | [5] 0.026

SHKBP1 (UniProt Q8TBC3)
inactive: [1] 0.003 | [2] 0.086 | [3] -0.095 | [4] 0.016 | [5] 0.015

SHMT1 (UniProt P34896)
inactive: [1] 0.015 | [2] 0.01 | [3] 0.034 | [4] -0.028 | [5] 0.021

SF1 isoform 6 (UniProt Q15637)
inactive: [1] 0.039 | [2] 0.16 | [3] 0.157 | [4] -0.017 | [5] -0.279

SGO1 (UniProt Q5FBB7)
inactive: [1] 0.002 | [2] 0.015 | [3] 0.001 | [4] 0.015 | [5] -0.008

SF3B2 (UniProt Q13435)
inactive: [1] 0.024 | [2] -0.035 | [3] -0.026 | [4] 0.063 | [5] 0.019

SEPTIN11 isoform 2 (UniProt Q9NVA2)
inactive: [1] 0.028 | [2] 0.024 | [3] 0.007 | [4] -0.02 | [5] 0

SGPL1 (UniProt O95470)
inactive: [1] 0.041 | [2] -0.014 | [3] 0.005 | [4] 0.049 | [5] -0.004

SERPINH1 (UniProt P50454)
inactive: [1] 0.046 | [2] 0.007 | [3] -0.025 | [4] -0.017 | [5] -0.037

SKA3 (UniProt Q8IX90)
inactive: [1] 0.058 | [2] -0.137 | [3] -0.035 | [4] 0.164 | [5] 0.114

2 records drawn at random from the list so far:
SFXN4 (UniProt Q6P4A7)
inactive: [1] 0.012 | [2] -0.011 | [3] 0.104 | [4] -0.015 | [5] 0.055

SFXN4 isoform 3 (UniProt Q6P4A7)
inactive: [1] 0.053 | [2] 0.316 | [3] 0.302 | [4] -0.198 | [5] 0.033

Following part.

SIN3A (UniProt Q96ST3)
inactive: [1] -0.08 | [2] -0.063 | [3] -0.046 | [4] 0 | [5] 0.077

SF1 (UniProt H7C0N4)
inactive: [1] 0.031 | [2] 0 | [3] 0.056 | [4] -0.025 | [5] 0.162

SERPINA7 (UniProt P05543)
inactive: [1] -0.014 | [2] -0.001 | [3] 0.1 | [4] 0.12 | [5] 0.128

SH3BP5L (UniProt Q7L8J4)
inactive: [1] -0.023 | [2] 0.02 | [3] 0.14 | [4] -0.014 | [5] -0.045

SHROOM2 (UniProt Q13796)
inactive: [1] 0.105 | [2] 0.102 | [3] 0.103 | [4] -0.008 | [5] -0.072

SERGEF (UniProt Q9UGK8)
inactive: [1] -0.089 | [2] 0.088 | [3] 0.02 | [4] 0.019 | [5] -0.107

SEL1L (UniProt Q9UBV2)
inactive: [1] -0.035 | [2] -0.008 | [3] 0.009 | [4] -0.005 | [5] -0.006

SET isoform 2 (UniProt Q01105)
inactive: [1] -0.02 | [2] 0.002 | [3] -0.032 | [4] -0.025 | [5] -0.004

SEPTIN10 isoform 2 (UniProt Q9P0V9)
inactive: [1] -0.046 | [2] 0.138 | [3] 0.03 | [4] -0.087 | [5] -0.08

SGF29 (UniProt Q96ES7)
inactive: [1] 0 | [2] 0.018 | [3] 0.104 | [4] -0.012 | [5] -0.021

SEPTIN5 (UniProt Q99719)
inactive: [1] -0.021 | [2] 0.069 | [3] 0.014 | [4] -0.045 | [5] -0.016

SIL1 (UniProt Q9H173)
inactive: [1] 0.034 | [2] -0.005 | [3] 0.064 | [4] 0.034 | [5] -0.006

SH3BP1 (UniProt Q9Y3L3)
inactive: [1] 0.009 | [2] 0.043 | [3] 0.043 | [4] -0.007 | [5] 0.02

SEPSECS (UniProt Q9HD40)
inactive: [1] 0.029 | [2] -0.04 | [3] -0.109 | [4] -0.025 | [5] 0.046

SFXN5 (UniProt Q8TD22)
inactive: [1] -0.079 | [2] 0.024 | [3] -0.11 | [4] 0.007 | [5] -0.061

SIAH1 isoform 2 (UniProt Q8IUQ4)
inactive: [1] 0.138 | [2] 0.174 | [3] 0.136 | [4] -0.044 | [5] 0.053

SHC1 isoform 6 (UniProt P29353)
inactive: [1] -0.011 | [2] 0.037 | [3] 0.007 | [4] 0.009 | [5] 0.042

SF3B4 (UniProt Q15427)
inactive: [1] 0.044 | [2] -0.047 | [3] -0.125 | [4] 0.064 | [5] 0.117

SEC63 (UniProt Q9UGP8)
inactive: [1] -0.006 | [2] 0.063 | [3] 0.032 | [4] -0.029 | [5] -0.012

SGPP1 (UniProt Q9BX95)
inactive: [1] -0.105 | [2] 0.023 | [3] 0.099 | [4] 0.106 | [5] 0.074

SEL1L3 (UniProt Q68CR1)
inactive: [1] -0.025 | [2] -0.071 | [3] 0.031 | [4] 0.163 | [5] 0.065

SERPINI1 (UniProt Q99574)
inactive: [1] -0.007 | [2] -0.019 | [3] 0.041 | [4] 0.046 | [5] 0.084

SEH1L isoform 1 (UniProt Q96EE3)
inactive: [1] -0.003 | [2] 0.06 | [3] -0.003 | [4] -0.014 | [5] 0.017

SHB (UniProt Q15464)
inactive: [1] -0.121 | [2] -0.125 | [4] -0.138 | [5] 0.051
